Test results taken from PMC7819943, “Rice protein-binding microarrays: a tool to detect cis-acting elements near promoter regions in rice”.
This is one part of the list.

The chains behind the UniProt entries cited, without tags or fusion partners.
UniProt Q0JBA9, entry or part of it: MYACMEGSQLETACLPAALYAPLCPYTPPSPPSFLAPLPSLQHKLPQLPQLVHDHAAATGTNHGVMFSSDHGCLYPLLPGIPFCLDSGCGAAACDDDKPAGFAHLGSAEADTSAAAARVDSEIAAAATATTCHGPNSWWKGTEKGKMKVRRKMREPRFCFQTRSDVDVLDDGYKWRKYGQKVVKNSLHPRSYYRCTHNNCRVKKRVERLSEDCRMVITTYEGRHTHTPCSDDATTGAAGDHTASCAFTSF

Molecular target: OsWRKY34 (Oryza sativa, UniProt Q0JBA9 1-250)
Test: protein-binding microarray (RPBM); PBS, 2% BSA, 51.3 ng/ul salmon testes DNA, 50 uM zinc acetate, 200 nM TF, 25 C, 1 h; high values mean tight binding
Details: protein: recombinant; tags: N-terminal polyhistidine and DsRed monomer fusion (pET32a); label: CyDye5-dUTP incorporated in the synthesized complementary strand; 3' TTTTT single-stranded linker to array surface; dsDNA, one strand shown
In short: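 Binding signal here means per-feature fluorescence intensity in arbitrary units. The values were read on an Axon 4000B scanner after a custom Agilent array, double-stranded by primer extension with Cy5-dUTP, was incubated with 200 nM protein at 25 °C for 1 h in PBS with 2% BSA, salmon testes DNA and 50 µM zinc acetate, then washed. The proteins were transcription factors with an N-terminal polyhistidine tag and DsRed, expressed in E. coli BL21-CodonPlus and purified on Ni–NTA.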

| Sequence | binding signal |
| --- | --- |
| TCTTGACCAACGTTTAACCATTCGTTTTATTTAAAATTTTCGGAGTCACCTAGTGCAG | 9450 fluorescence intensity (a.u.) |
| TGTTGCGGTTAGCTTGTGGCTCAGTTCTTTTACCTTCTGGCGGAGTCACCTAGTGCAG | 11200 fluorescence intensity (a.u.) |
| ACGCCTTCTTCTTTCGCTTCTTGTTGCCGCCGCCGCCACCCGGAGTCACCTAGTGCAG | 8230 fluorescence intensity (a.u.) |
| GTCCTTCTTCTTCTCCAGTCCACACACACAAAGGCACTCTCGGAGTCACCTAGTGCAG | 8560 fluorescence intensity (a.u.) |
| CTCTCTCTCTCTTTTCTTTTGCTAATTCATTCATATAATACGGAGTCACCTAGTGCAG | 9770 fluorescence intensity (a.u.) |
| TTTGATGGTGCTTGATTTTTTTTTATTTCATCAGTCATCCCGGAGTCACCTAGTGCAG | 12400 fluorescence intensity (a.u.) |
| CGGAGGGGTTGGGCTTGCGGGCGGCGTGTACCTTGTGCACCGGAGTCACCTAGTGCAG | 9410 fluorescence intensity (a.u.) |
| GTCGTTGTTTAAAAGTGTTAATGGCCTGGTGTCTAGCTAGCGGAGTCACCTAGTGCAG | 9180 fluorescence intensity (a.u.) |
| CGGTCAAACATGTACTAAAAAGTCAACGGTGTCAAACATTCGGAGTCACCTAGTGCAG | 15900 fluorescence intensity (a.u.) |
| CCGCTCGCCGCTCCGCCGTAAAACCCGTGCTCCACCACCGCGGAGTCACCTAGTGCAG | 8080 fluorescence intensity (a.u.) |
| ACCCACCGTTGCGTTGAGTCGTTGACCCGCAGTTCCCCTTCGGAGTCACCTAGTGCAG | 12700 fluorescence intensity (a.u.) |
| CCTTTGTCGAGCCATGATTTCTTCTCTCTCAAAGAGCTCACGGAGTCACCTAGTGCAG | 8260 fluorescence intensity (a.u.) |
| TTCGTGTACCAAGACTTGAGTTGATCCTTTTTCGCCGCTCCGGAGTCACCTAGTGCAG | 8080 fluorescence intensity (a.u.) |
| CTTCTTCTTCTGCGGATTGTGGTGCTCGGTTTGGTCGGTGCGGAGTCACCTAGTGCAG | 9740 fluorescence intensity (a.u.) |
| ACTTGCAGTGATCTCCTATTTTCTGTGAGGTTCATTAACACGGAGTCACCTAGTGCAG | 8320 fluorescence intensity (a.u.) |
| GGTTTTATTTCTAATTAATTATTCCATTAGTCGTGATTTACGGAGTCACCTAGTGCAG | 8440 fluorescence intensity (a.u.) |
| GCATTTTAATCTCAGTTTAGTTGGAGGAGGTGGATATTTTCGGAGTCACCTAGTGCAG | 8260 fluorescence intensity (a.u.) |
| TAGTAGTACCATTCTTAATTCCTCTATCGAGCTTTATTTCCGGAGTCACCTAGTGCAG | 8620 fluorescence intensity (a.u.) |
| TATGCCCACGTTGGACGGAGCGGAGTTTGATTGCCCTATACGGAGTCACCTAGTGCAG | 8910 fluorescence intensity (a.u.) |
| CCAAACTCGTTGGCCGCCGCGCTCGCTTGCCGCTGCTCCGCGGAGTCACCTAGTGCAG | 8360 fluorescence intensity (a.u.) |
| GACTTCTTAGGTTACTTTGTTTTGGTTTAGGTAGCGCATTCGGAGTCACCTAGTGCAG | 8930 fluorescence intensity (a.u.) |

3 entries drawn at random from those above:

| Sequence | binding signal |
| --- | --- |
| GTCGTTGTTTAAAAGTGTTAATGGCCTGGTGTCTAGCTAGCGGAGTCACCTAGTGCAG | 9180 fluorescence intensity (a.u.) |
| TTCGTGTACCAAGACTTGAGTTGATCCTTTTTCGCCGCTCCGGAGTCACCTAGTGCAG | 8080 fluorescence intensity (a.u.) |
| TGTTGCGGTTAGCTTGTGGCTCAGTTCTTTTACCTTCTGGCGGAGTCACCTAGTGCAG | 11200 fluorescence intensity (a.u.) |

Remaining list, next part:

| Sequence | binding signal |
| --- | --- |
| TGGGCATCGAGGGCGGGTACCGCGGGTTCTACGCGCGCAACGGAGTCACCTAGTGCAG | 9880 fluorescence intensity (a.u.) |
| TACATCGACAATATTGCACTTCATATCATTGCCTCAATCTCGGAGTCACCTAGTGCAG | 11000 fluorescence intensity (a.u.) |
| ATCAGCCTATCACATGTTTTGTCTACCATTCCATTCCAAACGGAGTCACCTAGTGCAG | 15900 fluorescence intensity (a.u.) |
| ATCAGCTTACCATGTTCTTATTTCATTCCCTTTCCAATTACGGAGTCACCTAGTGCAG | 10300 fluorescence intensity (a.u.) |
| AGCCCTCTTTCCTACATCTTGGGCTCCATATATCCCCAGTCGGAGTCACCTAGTGCAG | 8870 fluorescence intensity (a.u.) |
| TCCTTGCTGGTGTTCGTGTTCCCATGATGAAGAAAATCCCCGGAGTCACCTAGTGCAG | 8470 fluorescence intensity (a.u.) |
| CGCGTCTCTACTCGCTCCGCCGCGCCGTCGTCTCTCCCGACGGAGTCACCTAGTGCAG | 9760 fluorescence intensity (a.u.) |
| GATGCTAATATTCTGGGTTGATATGTTGGTGAATGGTAATCGGAGTCACCTAGTGCAG | 8880 fluorescence intensity (a.u.) |
| TTTCCCGTTCCGCTCGGCGTCGGCTCCGACTCCGACGCCCCGGAGTCACCTAGTGCAG | 8740 fluorescence intensity (a.u.) |
| AGTTACATACTACACTATTAATACATGGTCCACCTGTCATCGGAGTCACCTAGTGCAG | 8150 fluorescence intensity (a.u.) |
| TTCCTCATTCTTTCCCTGCTGCAGTTCGGCCACGTCTACGCGGAGTCACCTAGTGCAG | 8900 fluorescence intensity (a.u.) |
| CTGGGATTTGGTGGAGCTCCTGCGGTGGGGTGCCAGTGATCGGAGTCACCTAGTGCAG | 12200 fluorescence intensity (a.u.) |
| GAGTTTCGCCGGTATTTTCTCACGGGTTCCGGCGCGGCGTCGGAGTCACCTAGTGCAG | 9020 fluorescence intensity (a.u.) |
| TTGCCTGTTCAAATTTTCTTTGTTGTGTCAGACGTATGCTCGGAGTCACCTAGTGCAG | 8370 fluorescence intensity (a.u.) |
| TACTGAAATACCTCCACAATCTGCACTGTTGTCACCTACTCGGAGTCACCTAGTGCAG | 9010 fluorescence intensity (a.u.) |
| GCATGCAGCCTACAAGAGATTGTAATATAGTATCGTTGTTCGGAGTCACCTAGTGCAG | 8050 fluorescence intensity (a.u.) |
| GCCGCCGCCGACCACTCTCCTCCGCGTCCGCCTCGTCGCCCGGAGTCACCTAGTGCAG | 8740 fluorescence intensity (a.u.) |
| AGTGCTTGTTGGACTTGTGTCTGGTTCATTTATGCATAATCGGAGTCACCTAGTGCAG | 11200 fluorescence intensity (a.u.) |
| GTGCTCAGGGTTTTAAATTTCGAAACTTGGTTTTCTGCCACGGAGTCACCTAGTGCAG | 8040 fluorescence intensity (a.u.) |
| CCATCTTCTTCTGGCGAATCATGTCGACCACCAGCCCGGCCGGAGTCACCTAGTGCAG | 8310 fluorescence intensity (a.u.) |
| GGTGGTGGGCTGGTGGCGTATAGTCTTGAACTTACGCCAACGGAGTCACCTAGTGCAG | 9760 fluorescence intensity (a.u.) |
